Measurements reported in PubChem BioAssay AID1259323 (Peter MacCallum Cancer Centre, 2017)

- Purpose: 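Kinase siRNA screen linking the PAR2 receptor to the TRPV4 channel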 (primary screen)
- System: human HEK293 cells stably carrying inducible TRPV4
- Reagent: siRNA pool against human genes
- Conditions: PAR2 activation; agonist identity and dose not given
- Detection: 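Signal of a calcium dye in live cells following PAR2 activation, plateau and early peak normalised to mock transfection on each plate, mean of duplicate plates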
- Reading the numbers: TRPV4 plateau calcium, % of mock: higher = stronger sustained TRPV4 calcium entry than mock; PAR2 peak calcium, % of mock: higher = stronger early PAR2 calcium response than mock
- Active means: 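Active when sustained TRPV4 plateau calcium falls below 90% of mock while the early PAR2 peak remains above 79% of mock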
Shown is an unselected part of 715 reagents tested. Of all reagents, 91 (13%) were called active. 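Active pools lower the sustained TRPV4 phase but spare the early PAR2 peak; PAR2 agonist and dose are not stated; pools repeat across wells.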 Some reagents were tested in more than one well and are listed for each. Not stated in the record: the amount of reagent, the time to read-out.

| Gene | PubChem SID | TRPV4 plateau calcium, % of mock | PAR2 peak calcium, % of mock | call |
| --- | --- | --- | --- | --- |
| GSK3B (glycogen synthase kinase 3 beta) | SID336297671 | 94.3 | 89.8 | inactive |
| MAPKAPK5 (MAPK activated protein kinase 5) | SID336297755 | 99.5 | 98.1 | inactive |
| DSTYK (dual serine/threonine and tyrosine protein kinase) | SID336297343 | 94.1 | 94.5 | inactive |
| MAPK7 (mitogen-activated protein kinase 7) | SID336297104 | 91.3 | 94.3 | inactive |
| MAP3K3 (mitogen-activated protein kinase kinase kinase 3) | SID336297514 | 102 | 101 | inactive |
| CALM2 (calmodulin 2) | SID336297622 | 103 | 104 | inactive |
| MELK (maternal embryonic leucine zipper kinase) | SID336297683 | 94.2 | 99 | inactive |
| PTK2B (protein tyrosine kinase 2 beta) | SID336297436 | 80.9 | 72.2 | inactive |
| MAPK13 (mitogen-activated protein kinase 13) | SID336297542 | 86.2 | 98.1 | active |
| PIP4K2B (phosphatidylinositol-5-phosphate 4-kinase type 2 beta) | SID336297583 | 100 | 101 | inactive |
| PAK5 (p21 (RAC1) activated kinase 5) | SID336297715 | 95.1 | 99.4 | inactive |
| EPHA4 (EPH receptor A4) | SID336297664 | 98.5 | 95.2 | inactive |
| PFKL (phosphofructokinase, liver type) | SID336297589 | 102 | 104 | inactive |
| CDC7 (cell division cycle 7) | SID336297180 | 90.1 | 89.1 | inactive |
| TAOK3 (TAO kinase 3) | SID336297713 | 89.4 | 93.2 | active |
| TK2 (thymidine kinase 2) | SID336297599 | 101 | 98.2 | inactive |
| PDK1 (pyruvate dehydrogenase kinase 1) | SID336297603 | 98.2 | 102 | inactive |
| NUCKS1 | SID336297439 | 111 | 108 | inactive |
| PRKAB2 (protein kinase AMP-activated non-catalytic subunit beta 2) | SID336297565 | 84.5 | 94.6 | active |
| DYRK3 (dual specificity tyrosine phosphorylation regulated kinase 3) | SID336297414 | 114 | 103 | inactive |
| TEK (TEK receptor tyrosine kinase) | SID336297099 | 98.2 | 102 | inactive |
| PI4KB (phosphatidylinositol 4-kinase beta) | SID336297224 | 97.9 | 90.2 | inactive |
| NEK5 (NIMA related kinase 5) | SID336297121 | 100 | 96.6 | inactive |
| YES1 (YES proto-oncogene 1, Src family tyrosine kinase) | SID336297286 | 102 | 96.8 | inactive |
| CDK5R2 (cyclin dependent kinase 5 regulatory subunit 2) | SID336297340 | 92.4 | 96.2 | inactive |
| RSKR (ribosomal protein S6 kinase related) | SID336297459 | 101 | 97.9 | inactive |
| EFNB3 (ephrin B3) | SID336297635 | 82.7 | 90.4 | active |
| TSSK3 (testis specific serine kinase 3) | SID336297270 | 95.4 | 93 | inactive |
| DYRK1B | SID336297472 | 106 | 102 | inactive |
| TP53RK (TP53 regulating kinase) | SID336297540 | 104 | 102 | inactive |
| SCYL1 (SCY1 like pseudokinase 1) | SID336297564 | 101 | 99.3 | inactive |
| HIPK2 (homeodomain interacting protein kinase 2) | SID336297411 | 98.2 | 97.2 | inactive |
| PDK4 (pyruvate dehydrogenase kinase 4) | SID336297729 | 90.8 | 96 | inactive |
| IRAK4 (interleukin 1 receptor associated kinase 4) | SID336297205 | 112 | 106 | inactive |

6 entries from above, reformatted.
{"Gene":"DYRK3 (dual specificity tyrosine phosphorylation regulated kinase 3)","PubChem SID":"SID336297414","TRPV4 plateau calcium, % of mock":114,"PAR2 peak calcium, % of mock":103,"call":"inactive"}
{"Gene":"TEK (TEK receptor tyrosine kinase)","PubChem SID":"SID336297099","TRPV4 plateau calcium, % of mock":98.2,"PAR2 peak calcium, % of mock":102,"call":"inactive"}
{"Gene":"PI4KB (phosphatidylinositol 4-kinase beta)","PubChem SID":"SID336297224","TRPV4 plateau calcium, % of mock":97.9,"PAR2 peak calcium, % of mock":90.2,"call":"inactive"}
{"Gene":"NEK5 (NIMA related kinase 5)","PubChem SID":"SID336297121","TRPV4 plateau calcium, % of mock":100,"PAR2 peak calcium, % of mock":96.6,"call":"inactive"}
{"Gene":"YES1 (YES proto-oncogene 1, Src family tyrosine kinase)","PubChem SID":"SID336297286","TRPV4 plateau calcium, % of mock":102,"PAR2 peak calcium, % of mock":96.8,"call":"inactive"}
{"Gene":"CDK5R2 (cyclin dependent kinase 5 regulatory subunit 2)","PubChem SID":"SID336297340","TRPV4 plateau calcium, % of mock":92.4,"PAR2 peak calcium, % of mock":96.2,"call":"inactive"}

Continued:
| Gene | PubChem SID | TRPV4 plateau calcium, % of mock | PAR2 peak calcium, % of mock | call |
| --- | --- | --- | --- | --- |
| PRKD2 (protein kinase D2) | SID336297596 | 94.8 | 94.4 | inactive |
| FER (FER tyrosine kinase) | SID336297057 | 93.9 | 89.1 | inactive |
| CERT1 (ceramide transporter 1) | SID336297536 | 99.8 | 99.8 | inactive |
| PRKD3 (protein kinase D3) | SID336297096 | 102 | 98.3 | inactive |
| EPHB1 (EPH receptor B1) | SID336297759 | 93.5 | 95.3 | inactive |
| GUCY2F (guanylate cyclase 2F, retinal) | SID336297670 | 111 | 104 | inactive |
| ALPK2 (alpha kinase 2) | SID336297618 | 96.3 | 102 | inactive |
| PI4K2A (phosphatidylinositol 4-kinase type 2 alpha) | SID336297271 | 103 | 97.6 | inactive |
| EPHA7 (EPH receptor A7) | SID336297294 | 99.3 | 97.8 | inactive |
| GALK1 (galactokinase 1) | SID336297679 | 96.2 | 99.8 | inactive |
| TLK1 (tousled like kinase 1) | SID336297656 | 108 | 99.2 | inactive |
| ALDH18A1 (aldehyde dehydrogenase 18 family member A1) | SID336297500 | 105 | 102 | inactive |
| ADCK1 (aarF domain containing kinase 1) | SID336297261 | 95.4 | 101 | inactive |
| PAK3 (p21 (RAC1) activated kinase 3) | SID336297685 | 96.6 | 97.8 | inactive |
| TRIB1 (tribbles pseudokinase 1) | SID336297064 | 101 | 106 | inactive |
| AGK (acylglycerol kinase) | SID336297111 | 108 | 97.9 | inactive |
| COMMD3 (COMM domain containing 3) | SID336297598 | 88.1 | 90.9 | active |
| CHUK | SID336297730 | 105 | 108 | inactive |
| STK40 (serine/threonine kinase 40) | SID336297477 | 90.9 | 93.4 | inactive |
| STK40 (serine/threonine kinase 40) | SID336297477 | 89.1 | 90.3 | active |
| PTK6 (protein tyrosine kinase 6) | SID336297347 | 117 | 114 | inactive |
| PRKACG (protein kinase cAMP-activated catalytic subunit gamma) | SID336297086 | 104 | 101 | inactive |
| RPS6KB1 (ribosomal protein S6 kinase B1) | SID336297362 | 129 | 111 | inactive |
| EGFR (epidermal growth factor receptor) | SID336297383 | 109 | 104 | inactive |
| LYN (LYN proto-oncogene, Src family tyrosine kinase) | SID336297060 | 100 | 102 | inactive |
| MAP2K7 (mitogen-activated protein kinase kinase 7) | SID336297318 | 99.5 | 96.3 | inactive |
| GRK3 (G protein-coupled receptor kinase 3) | SID336297405 | 111 | 112 | inactive |
| PTK2 (protein tyrosine kinase 2) | SID336297056 | 114 | 104 | inactive |
| LATS2 (large tumor suppressor kinase 2) | SID336297210 | 97.8 | 93.1 | inactive |
| BCR (BCR activator of RhoGEF and GTPase) | SID336297398 | 102 | 97.2 | inactive |
| IKBKE (inhibitor of nuclear factor kappa B kinase subunit epsilon) | SID336297464 | 102 | 101 | inactive |
| TAB1 (TGF-beta activated kinase 1 (MAP3K7) binding protein 1) | SID336297567 | 93.7 | 94.6 | inactive |
| DGKI (diacylglycerol kinase iota) | SID336297402 | 100 | 105 | inactive |
| CKMT1B (creatine kinase, mitochondrial 1B) | SID336297191 | 96.5 | 96.6 | inactive |
| PRKAA1 (protein kinase AMP-activated catalytic subunit alpha 1) | SID336297136 | 119 | 112 | inactive |
| PKIB (cAMP-dependent protein kinase inhibitor beta) | SID336297377 | 98.3 | 102 | inactive |
| MAP3K20 (mitogen-activated protein kinase kinase kinase 20) | SID336297728 | 92.8 | 96.8 | inactive |
| PGK2 (phosphoglycerate kinase 2) | SID336297453 | 98.6 | 96.6 | inactive |
| CSNK1G2 (casein kinase 1 gamma 2) | SID336297123 | 98.6 | 97.6 | inactive |
| PLK2 (polo like kinase 2) | SID336297122 | 106 | 106 | inactive |
| GUCY2EP (guanylate cyclase 2E, pseudogene) | SID336297702 | 104 | 105 | inactive |
| FASTK (Fas activated serine/threonine kinase) | SID336297252 | 81.5 | 85.9 | active |
| MTOR (mechanistic target of rapamycin kinase) | SID336297170 | 86.2 | 87.9 | active |
| ACVR2B (activin A receptor type 2B) | SID336297382 | 89.2 | 92.1 | active |
| STK38L (serine/threonine kinase 38 like) | SID336297476 | 102 | 99.7 | inactive |
| STK25 (serine/threonine kinase 25) | SID336297179 | 87.9 | 91.3 | active |
| MAP3K21 (mitogen-activated protein kinase kinase kinase 21) | SID336297130 | 107 | 103 | inactive |
| NRBP1 (nuclear receptor binding protein 1) | SID336297612 | 88.2 | 95 | active |
| TGFBR1 (transforming growth factor beta receptor 1) | SID336297339 | 104 | 98.1 | inactive |
| TAF1L (TATA-box binding protein associated factor 1 like) | SID336297272 | 85.1 | 87.9 | active |
